# Laboratory results as given in article PMC10474093.
# Protein sequences, listed by entry. Tags and fused reporters are not part of them. Residues count along the entry.
# UniProt P11021, residues 19-654: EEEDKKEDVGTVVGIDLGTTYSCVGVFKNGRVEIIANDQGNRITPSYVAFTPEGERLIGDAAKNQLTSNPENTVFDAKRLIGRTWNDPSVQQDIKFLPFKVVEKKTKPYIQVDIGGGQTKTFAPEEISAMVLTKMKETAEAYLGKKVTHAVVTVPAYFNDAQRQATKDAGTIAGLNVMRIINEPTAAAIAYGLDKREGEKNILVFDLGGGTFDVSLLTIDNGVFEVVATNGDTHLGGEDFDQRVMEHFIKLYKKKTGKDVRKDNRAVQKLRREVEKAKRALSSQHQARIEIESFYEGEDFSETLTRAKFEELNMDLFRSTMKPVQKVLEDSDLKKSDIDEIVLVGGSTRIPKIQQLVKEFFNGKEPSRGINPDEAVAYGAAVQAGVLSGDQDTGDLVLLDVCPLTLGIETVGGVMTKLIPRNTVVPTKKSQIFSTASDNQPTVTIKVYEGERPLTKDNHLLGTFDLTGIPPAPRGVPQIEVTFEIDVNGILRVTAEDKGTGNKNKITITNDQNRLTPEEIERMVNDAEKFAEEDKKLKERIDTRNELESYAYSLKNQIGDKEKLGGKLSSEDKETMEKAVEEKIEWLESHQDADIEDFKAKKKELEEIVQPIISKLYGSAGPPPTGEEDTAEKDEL
# UniProt P33527: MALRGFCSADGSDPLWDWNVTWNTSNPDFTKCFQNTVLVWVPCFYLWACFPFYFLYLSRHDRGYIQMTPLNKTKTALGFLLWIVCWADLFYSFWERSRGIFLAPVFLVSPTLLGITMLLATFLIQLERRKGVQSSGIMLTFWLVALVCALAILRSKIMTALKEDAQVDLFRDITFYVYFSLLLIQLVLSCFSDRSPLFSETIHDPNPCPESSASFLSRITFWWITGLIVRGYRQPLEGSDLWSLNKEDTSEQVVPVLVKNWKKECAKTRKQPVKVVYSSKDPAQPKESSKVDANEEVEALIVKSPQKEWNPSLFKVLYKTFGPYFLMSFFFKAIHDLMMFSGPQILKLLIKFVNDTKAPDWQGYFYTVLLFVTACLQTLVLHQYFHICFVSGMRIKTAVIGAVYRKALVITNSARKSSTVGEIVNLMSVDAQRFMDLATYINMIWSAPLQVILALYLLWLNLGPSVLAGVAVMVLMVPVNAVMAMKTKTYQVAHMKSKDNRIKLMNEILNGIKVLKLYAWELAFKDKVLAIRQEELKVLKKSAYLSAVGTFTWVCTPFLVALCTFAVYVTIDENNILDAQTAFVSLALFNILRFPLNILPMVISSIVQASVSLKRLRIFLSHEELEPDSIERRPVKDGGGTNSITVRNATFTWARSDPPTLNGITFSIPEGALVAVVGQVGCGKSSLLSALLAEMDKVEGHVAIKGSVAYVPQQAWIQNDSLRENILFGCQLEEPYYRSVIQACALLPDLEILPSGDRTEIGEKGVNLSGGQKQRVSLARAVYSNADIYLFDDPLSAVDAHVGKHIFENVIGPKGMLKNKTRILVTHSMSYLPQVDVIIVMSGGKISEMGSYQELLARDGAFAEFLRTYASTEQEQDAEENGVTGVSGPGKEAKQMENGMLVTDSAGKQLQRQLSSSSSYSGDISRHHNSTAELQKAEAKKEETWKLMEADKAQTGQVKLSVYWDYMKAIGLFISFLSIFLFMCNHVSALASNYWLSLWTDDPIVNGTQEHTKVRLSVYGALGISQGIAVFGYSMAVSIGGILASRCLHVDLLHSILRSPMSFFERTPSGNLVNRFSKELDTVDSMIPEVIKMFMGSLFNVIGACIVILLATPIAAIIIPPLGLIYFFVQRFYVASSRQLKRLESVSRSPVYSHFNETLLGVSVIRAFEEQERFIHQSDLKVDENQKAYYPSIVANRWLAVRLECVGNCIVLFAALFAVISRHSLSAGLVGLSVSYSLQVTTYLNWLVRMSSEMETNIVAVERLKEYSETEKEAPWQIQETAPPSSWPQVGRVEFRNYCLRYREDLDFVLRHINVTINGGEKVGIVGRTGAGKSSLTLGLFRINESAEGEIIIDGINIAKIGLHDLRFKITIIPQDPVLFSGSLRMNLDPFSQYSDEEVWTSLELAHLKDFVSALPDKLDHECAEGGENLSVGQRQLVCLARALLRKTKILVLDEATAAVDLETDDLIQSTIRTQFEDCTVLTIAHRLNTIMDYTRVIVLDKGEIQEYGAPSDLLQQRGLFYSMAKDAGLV
# No constants are given. Whether binding was seen depends on the method and setting. Binding seen in cells or lysates may run through a third protein. Some results given as binding are weak or reduced against the parent protein; the word gives no strength.
# What was measured:
# [1] = target: Glucose-regulated protein 78 (GRP78) (human (endogenous in DLD1)) (UniProt P11021); assay: co-IP; endogenous GRP78 and MRP1 in DLD1 cells; lysis in NETN buffer (20 mM Tris-HCl pH 8.0, 100 mM NaCl, 0.5% NP-40, 1 mM EDTA), Protein A/G plus agarose beads with indicated antibodies overnight at 4 °C; also after 20% TAMs-CM-T treatment (more interaction) and in the presence of HA15 (less interaction)
# [2] = target: GRP78 (WT), overexpressed full-length GRP78 (human) (UniProt P11021); assay: co-IP; DLD1 cells overexpressing GRP78 (WT), deletion mutants or T453D; lysis in NETN buffer, beads washed three times with NETN buffer; MRP1 detected in the complex of GRP78
substance,measurement,setting,value
multidrug resistance-associated protein MRP1 (from UniProt P33527 1-1531),binding,[1],binds
same,binding,[2],binds
